From PMC3785428 come the findings set out here.

These are yes or no findings as the source states them, for the method shown. Binding calls can cover weak binding; strength is not graded here.

This experiment concerns the target SlNINJA (tomato NOVEL INTERACTOR OF JAZ) (tomato (Solanum lycopersicum)). Put plainly: two-hybrid; Matchmaker system, MaV203 yeast; SlNINJA with SlJAZs (prey, pGADT7); growth on medium without Leu, Trp and His with 10 mM 3-amino-1,2,4-triazole.

B1: SlJAZ7 (protein, UniProt Q9M723 1-228)
chain: MDSRMEIDFMDLNSKPKLSEMEKQHKKVSGMKWPFSLADLATHHEHTFFQNYKSTPIVSINSKNSSLNNYKSTIDPQYFRGTFPLLAKTSTYDSRKNYDNLSPNESTLTIFYMGEVHIFPGISPEKAELIIDLVSKSTTLHMDEILEKVMNKEKYEENKSDPSNASTNYAKGALAMARRATLARFLEKRKHRLIKARPYLYGENLSKFPFDIQQQEEETASSSVHWEN
For B1, the binding entry is on record as “binds”.
